# Measured values: US20210008083A1, “USE OF A BISPHOSPHONATE SALT IN A MEDICAMENT FOR A NATURALLY OCCURRING DISEASE/DISORDER IN A MAMMAL” (Ostafit B.V., priority 2016, published 2021)
# Assays:
# experimental OA = settings: cited from earlier work
# [1] = tested on: osteoarthritis in the SI joint; settings: about 100 horses, 4-22 years, 0.2 mg/kg intravenous
# Description: The following experiments were performed during November 2015-May 2016. In various veterinarian locations in the Netherlands the animals were treated or occasionally the animals were treated on a farm in a stable.
# [2] = cited from earlier work
compound,measurement,setting,value
"NCCCC(O)(P(=O)(O)O)P(=O)(O)O.O.O.O [Alendronate, [4-amino-1-hydroxy-1-(hydroxy-oxido-phosphoryl)-butyl]phosphonic acid trihydrate]",effect on bone turnover and subchondral bone,experimental OA,prevented increased bone turnover and preserved the structural integrity of subchondral bone
same,horses free of complaints for the SI joint,[1],"Most horses were free of complaints for the SI joint within a relative short period of time, some even within a week"
same,esophageal irritation after oral dosage,[2],can cause irritation and inflammation of the esophagus
